# Reference: PubChem BioAssay (EPA / NIEHS)
# “And” between values parts separate entries of the source, which are not always exact repeats. Equal values may be shown once. This list was built around the results that the source calls inconclusive (neither active nor inactive); the mix of calls is not that of the screen. For some assays here: Where the call is inconclusive, the potency comes from a doubtful curve fit. Some compounds were tested as several samples or in several runs, with calls that do not always agree. The source made the active and inactive calls. Rule for the calls: active = hit-call score of the fitted dose curve at least 0.9, where 1 is the maximum; inconclusive = response in the unintended direction; inactive = score below 0.9.
# What was measured:
# [1] = CCTE_Shafer_MEA_dev_AB: CCTE's Alamar Blue Assay for Cytotoxicity in the Neural Network Formation Assay, Shafer Lab (AID 2284083);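 note: resazurin reduction fluorescence as viability of cultured neurons; twelve days of exposure from plating with re-dosing on DIV 5 and 9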
# Method in brief: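 Fluorescent resazurin reduction serves as the viability read-out, with DMSO as negative control and baseline. Cells were primary rat cortical neurons grown on MEA plates and dosed from day 0 to day 12, treatment renewed on DIV 5 and 9.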
# [2] = CCTE_Mundy_HCI_hNP1_Pro_ResponderAvgInten: CCTE's Proliferation Assay in human neuroprogenitor cells, Mundy Lab (AID 2284224);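 note: human neural progenitor cells hNP1 derived from WA09 embryonic stem cells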
# Method in brief: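 Proliferation read as average intensity of BrdU-positive cells, imaged at 26.25 h post-dosing: chemical exposure started after 40–44 h culture, BrdU during final 4 h, paraformaldehyde fixation. Positive-direction fit relative to DMSO.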
# [3] = CCTE_Mundy_HCI_hNP1_CellTiter: CCTE's Cell Titer-Glo 2 Assay in human neuroprogenitor cells for Viability, Mundy Lab (AID 2284241);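 for AC50: a hit is a drop in ATP luminescence versus DMSO meaning reduced viability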
# Method in brief: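 Viability read as luminescent ATP content (CellTiter-Glo, 30 min room temperature) twenty-four hours after dosing, relative to DMSO. Cells: WA09-derived hNP1 neuroprogenitors on poly-L-ornithine/laminin, plated 40 to 44 hours before chemical.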
# [4] = TAMU_HCS_1.5hr_SingleDonor1434_Cytotoxicity: Cytotoxicity Assessment using High-content Screening (HCS) Fluorescent Imaging for the Texas A&M University (TAMU) 1.5-hr Human Induced Pluripotent Stem Cell (iPSC)-derived Cardiotoxicity Assay (AID 2284234)
# Method in brief: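 Human iPSC-derived cardiomyocytes dosed at 0.2, 1, 10, 100 uM final (0.5% DMSO) for 90 min at 37 C. Hoechst 33342-stained nuclei counted by 10x high-content imaging; POD is EC10, a 10% drop in total cell count versus DMSO.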
# [5] = CCTE_Mundy_HCI_Cortical_Synap_Neur_Matur_NeuronCount: CCTE's Synaptogenesis and Neurite Maturation Assay in rat cortical cells for Neuron Count, Mundy Lab (AID 2284242);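 note: neuron number from Hoechst nuclei and MAP2 staining by high-content imaging; hits reduce neuron count versus DMSO baseline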
# Method in brief: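 Imaging-based neuron count in rat cortical cultures after chemical exposure from DIV 7 to DIV 12, with AraC added at DIV 5. Activity is fitted relative to DMSO.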
# [6] = CCTE_Shafer_MEA_acute_LDH: CCTE's Lactate Dehydrogenase Assay for Cytotoxicity in the Neural Acute Assay, Shafer Lab (AID 2284086);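 note: active means LDH release rises above DMSO vehicle level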
# Method in brief: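 Released lactate dehydrogenase, read at 490 nm, indicated cytotoxicity after acute 40-min compound treatment of rat cortical neuron networks grown on 48-well MEA plates.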
# [7] = CCTE_Mundy_HCI_hN2_NOG_NeuriteCount: CCTE's Neurite Outgrowth Assay in human hN2 cells for Neurite Count, Mundy Lab (AID 2284219)
# Method in brief: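 In this morphology assay, hNP1-derived neurons received test chemical 2 h post-plating and were fixed two days later in warm paraformaldehyde/sucrose containing Hoechst 33342. Neurites, labelled by rabbit anti-βIII-tubulin (1:800) and Alexa Fluor-488 (1:500), were counted automatically.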
# [8] = CCTE_Mundy_HCI_hN2_NOG_NeuronCount: CCTE's Neurite Outgrowth Assay in human hN2 cells for Neuron Count, Mundy Lab (AID 2284221)
# Method in brief: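 Read-out is the number of betaIII-tubulin-positive neurons imaged by automated high-content analysis, with DMSO as negative control.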
# [9] = CCTE_Mundy_HCI_Cortical_NOG_NeuronCount: CCTE's Neurite Outgrowth Assay in rat cortical cells for Neuron Count, Mundy Lab (AID 2284236);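 note: neurons counted by imaging betaIII-tubulin and Hoechst stained cortical cells; cells exposed to compound for about 48 hours before fixation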
# Method in brief: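 Read-out: neuron number by high-content imaging of betaIII-tubulin (Alexa Fluor-488) and Hoechst-labelled rat primary cortical cells.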
# [10] = CCTE_Mundy_HCI_hN2_NOG_NeuriteLength: CCTE's Neurite Outgrowth Assay in human hN2 cells for Neurite Length, Mundy Lab (AID 2284220)
# Method in brief: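 Read-out is neurite length from high-content imaging of βIII-tubulin/Alexa Fluor-488-labelled neurons, referenced to DMSO controls.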
smiles,measurement,setting,value
O=C(CC(=O)C(F)(F)C(F)(F)C(F)(F)F)c1cccs1,AC50,[1],active: 9.02 µM
O=S(=O)(O)CCC(F)(F)C(F)(F)C(F)(F)C(F)(F)C(F)(F)C(F)(F)C(F)(F)C(F)(F)F,AC50,[1],inconclusive: 15 µM
same,AC50,[2],inconclusive: 15 µM
same,AC50,[3],inconclusive: 15 µM
CCC(C)(C)C(=O)O[C@H]1C[C@@H](C)C=C2C=C[C@H](C)[C@H](CC[C@@H]3C[C@@H](O)CC(=O)O3)[C@H]21,AC50,[1],active: 1.75 µM
O=C(O)C(F)(F)C(F)(F)C(F)(F)C(F)(F)C(F)(F)C(F)(F)C(F)(F)C(F)(F)C(F)(F)C(F)F,outcome,[1],inactive
C=C(C)C(=O)OCCC(F)(F)C(F)(F)C(F)(F)C(F)(F)C(F)(F)C(F)(F)F,AC50,[1],inconclusive: 5.84 µM
FC(F)(F)COC(OCC(F)(F)F)OCC(F)(F)F,AC50,[1],inconclusive: 4.84 µM
N#CCCNCCC#N,AC50,[1],inconclusive: 10.2 µM
same,AC50,[2],inconclusive: 0.231 µM
same,AC50,[4],inconclusive: 50 µM
same,AC50,[5],inconclusive: 0.00946 µM
NC(O)(C(F)(F)F)C(F)(F)F,AC50,[1],inconclusive: 15 µM
same,AC50,[2],inconclusive: 3.83 µM
C[C@]12CC[C@@H]3c4ccc(O)cc4CC[C@H]3[C@@H]1CC[C@@H]2O,AC50,[1],active: 6.6 µM
same,outcome,[1],inactive
NCC(F)(F)C(F)(F)C(F)(F)C(F)(F)F,outcome,[1],inactive
FC(F)(F)C(F)(F)CNCC(F)(F)C(F)(F)F,AC50,[1],inconclusive: 15 µM
O=C(O)c1ccccc1,AC50,[1],inconclusive: 0.119 µM
same,AC50,[6],inconclusive: 20 µM
same,outcome,[7],inactive
same,AC50,[2],inconclusive: 50 µM
same,AC50,[4],inconclusive: 50 µM
same,AC50,[5],inconclusive: 0.001 µM
c1ccc2c(c1)ccc1cc3c(ccc4ccccc43)cc12,AC50,[1],inconclusive: 5.05 µM
O=C(O)C(F)(F)C(F)(F)C(F)(F)F,AC50,[1],inconclusive: 15 µM
OC(Cn1cncn1)(Cn1cncn1)c1ccc(F)cc1F,outcome,[1],inactive
same,AC50,[8],inconclusive: 0.000167 µM
same,AC50,[2],inconclusive: 0.0001 µM
same,AC50,[9],inconclusive: 0.723 nM
same,outcome,[3],inactive
same,AC50,[5],inconclusive: 50 µM
NC(=O)N1c2ccccc2C=Cc2ccccc21,AC50,[1],inconclusive: 0.003 µM
same,outcome,[10],inactive
same,AC50,[2],inconclusive: 0.0001 µM
same,AC50,[5],inconclusive: 0.1 µM
O=P(OC(CCl)CCl)(OC(CCl)CCl)OC(CCl)CCl,outcome,[1],inactive
same,AC50,[2],inconclusive: 15 µM
same,AC50,[9],inconclusive: 0.531 nM
same,AC50,[3],inconclusive: 2.93 µM
c1ccc2c(c1)-c1cccc3c1c-2cc1ccccc13,outcome,[1],inactive
CN(CCO)S(=O)(=O)C(F)(F)C(F)(F)C(F)(F)C(F)(F)C(F)(F)C(F)(F)C(F)(F)C(F)(F)F,AC50,[1],inconclusive: 5 µM
O=C(O)CCC(F)(F)C(F)(F)C(F)(F)C(F)(F)C(F)(F)F,AC50,[1],inconclusive: 15 µM
O=C(O)C(F)(F)OC(F)(F)C(F)(F)OC(F)(F)C(F)(F)OC(F)(F)C(F)(F)C(F)(F)C(F)(F)F,AC50,[1],inconclusive: 2.98 µM
O=S(=O)(OCC(F)F)C(F)(F)F,AC50,[1],inconclusive: 15 µM
O=C(O)C=C(C(F)(F)F)C(F)(F)F,AC50,[1],inconclusive: 15 µM
OCCCC(F)(F)C(F)(F)C(F)(F)F,AC50,[1],inconclusive: 15 µM
OCC(F)(F)C(F)(F)C(F)(F)C(F)(F)C(F)(F)C(F)(F)CO,AC50,[1],inconclusive: 2.61 µM
OCC(F)(F)C(F)(F)C(F)(F)C(F)(F)C(F)(F)C(F)(F)C(F)(F)C(F)(F)C(F)(F)C(F)(F)C(F)(F)F,outcome,[1],inactive
Clc1ccccc1C(c1ccccc1)(c1ccccc1)n1ccnc1,AC50,[1],inconclusive: 10 µM
FC(F)(F)C(F)(F)C(F)(F)C(F)(F)C(F)(F)C(F)(F)CC1CO1 (configuration not stated),AC50,[1],inconclusive: 24.1 µM
same,AC50,[2],inconclusive: 15 µM
CC#C[C@]1(O)CC[C@H]2[C@@H]3CCC4=CC(=O)CCC4=C3[C@@H](c3ccc(N(C)C)cc3)C[C@@]21C,AC50,[1],active: 16.5 µM and active: 25.4 µM
same,AC50,[6],inconclusive: 20 µM
same,AC50,[2],active: 18 µM and active: 23.2 µM
same,AC50,[9],active: 69.2 µM and active: 15 µM
CC1(C)S[C@@H]2[C@H](NC(=O)COc3ccccc3)C(=O)N2[C@H]1C(=O)O,AC50,[2],inconclusive: 15 µM
same,AC50,[3],inconclusive: 0.000848 µM
same,AC50,[5],inconclusive: 0.00248 µM
CSC(=O)c1cccc2nnsc12,AC50,[2],inconclusive: 0.000575 µM
same,AC50,[9],inconclusive: 15000 nM
same,AC50,[5],inconclusive: 0.00472 µM

# Four entries from above, with tabs.
smiles	measurement	setting	value
N#CCCNCCC#N	AC50	[5]	inconclusive: 0.00946 µM
O=P(OC(CCl)CCl)(OC(CCl)CCl)OC(CCl)CCl	AC50	[3]	inconclusive: 2.93 µM
c1ccc2c(c1)-c1cccc3c1c-2cc1ccccc13	outcome	[1]	inactive
OCC(F)(F)C(F)(F)C(F)(F)C(F)(F)C(F)(F)C(F)(F)CO	AC50	[1]	inconclusive: 2.61 µM
